Results as given in US10041115B2, “3′-OH unblocked, fast photocleavable terminating nucleotides and methods for nucleic acid sequencing” (LASERGEN, INC., priority 2011, dated 2018).
“Also recorded” adds a separate entry of the source. Some entries repeat one wording, which the source may state once for all of them.

Test: Photochemical cleavage assays of incorporated nucleotide analogs (365 nm UV light, DT50)
Format: physicochemical
Settings: for transient products following brief exposure to UV light: incorporation assays, gel electrophoresis, 1 mM NaN3, no DTT
Protocol: As used herein, the term “DT50” refers to the amount of time required to cleavage 50% of the base analog incorporated in the primer-template complex.
To compare the rates of photochemical cleavage between the nucleotide analogs described here, a protocol was developed to deliver a daily light intensity output of 0.70±0.01 W/cm^2 to samples, see below.
The power supply was turned on for about 30 min prior to that of the lamp and recirculation bath as described by the manufacturer. The IR liquid filter was cooled to 9° C. Light intensity was determined using a model PM100 power meter (Thorlabs), a 1000 μm pinhole (Edmund Optics), a modified 0.5 mL Eppendorf tube cut in half, and a 3-axis manual translation stage (Newport), see FIG. 5. The half cut Eppendorf tube was positioned in front of the pinhole and power meter detector head to account for the geometric shape distortion of the light as it passes through a reaction solution. The translation stage was then used to align the tube/pinhole/detector device with the highest intensity from the arc beam.
To stabilize its output, the lamp was left on for one hour prior to intensity measurements. Thereafter, the measured power was adjusted by increasing the current from the power supply. In order to achieve intensity (I) of 0.70 W/cm^2, the measured power (P) was adjusted to ˜5.5 mW, according to the equation:
[formula] where r is the radius of pinhole.
The beam was then focused by placing an 0.5 mL Eppendorf tube into the sample holder, the tube of which was modified with an internal alignment card to provide reference lines for volume heights of 10 μL and 20 μL, see FIG. 5. The reference lines enabled the beam to be centered for a given reaction volume. Beam alignment was further verified by observing the mercury arc image of the lamp produced by the rear reflector. A second alignment card was placed into the rotating sample holder to view the image, which when properly aligned using the reflector would produce an inverted arc image on the arc gap itself. This step ensured that arc hotspots were not superimposed, which could cause overheating while maintaining a power output of ˜5.5 mW. The speed of the rotating sample holder was adjusted within a range of 1,200-1,350 rpm using a Nova-Strobe DA Plus stroboscope (Monarch Instrument) by adjusting the motor's torque with an adjustment screw.
Photochemical cleavage assays: Nucleotide analogs were incorporated using 10 μL reactions, as described for the PEP assays, at a final concentration of 100 nM. […] OligoTemplate-2, oligoTemplate-5, and oligoTemplate-4 each hybridized with BODIPY-FL labeled primer-1 were used for C^7-HOMedA, C^7-HOMedG, and HOMedU analogs, respectively. OligoTemplate-8 hybridized with BODIPY-FL labeled primer-3 was used to assay HOMedC analogs. Incorporated reactions were quenched with either 1 mM sodium azide solution; 1 mM sodium azide, 50 mM DTT solution; or reagents C-G (see key in FIG. 4), exposed to 365 nm ultraviolet (UV) light for various time points using our UV deprotector, and then placed on ice.

Row | SMILES | transient products following brief exposure to UV light | transient product (TP) in the presence of DTT (incorporated by Therminator polymerase, 0.70 W/cm^2 365 nm light, DTT added)
1 | COc1ccc([N+](=O)[O-])c([C@@H](OCc2cn([C@H]3C[C@H](O)[C@@H](COP(=O)(O)OP(=O)(O)OP(=O)(O)O)O3)c(=O)nc2N)C(C)(C)C)c1 [dC.VI, 5-[(S)-1-(5-methoxy-2-nitrophenyl)-2,2-dimethyl-propyloxy]methyl-2′-deoxycytidine-5′-triphosphate] | transient products were observed | –
2 | COc1ccc([N+](=O)[O-])c([C@@H](OCc2cn([C@H]3C[C@H](O)[C@@H](COP(=O)(O)OP(=O)(O)OP(=O)(O)O)O3)c3ncnc(N)c23)C(C)(C)C)c1 [dA.VI, 7-[(S)-1-(5-methoxy-2-nitrophenyl)-2,2-dimethyl-propyloxy]methyl-7-deaza-2′-deoxyadenosine-5′-triphosphate] | transient products were observed | –
3 | COc1ccc([N+](=O)[O-])c([C@@H](OCc2cn([C@H]3C[C@H](O)[C@@H](COP(=O)(O)OP(=O)(O)OP(=O)(O)O)O3)c3nc(N)[nH]c(=O)c23)C(C)(C)C)c1 [dG.VI, 7-[(S)-1-(5-methoxy-2-nitrophenyl)-2,2-dimethyl-propyloxy]methyl-7-deaza-2′-deoxyguanosine-5′-triphosphate] | but not | –
4 | COc1ccc([N+](=O)[O-])c([C@@H](OCc2cn([C@H]3C[C@H](O)[C@@H](COP(=O)(O)OP(=O)(O)OP(=O)(O)O)O3)c(=O)[nH]c2=O)C(C)(C)C)c1 [dU.VI, 5-[(S)-1-(5-Methoxy-2-nitrophenyl)-2,2-dimethyl-propyloxy]methyl-2′-deoxyuridine-5′-triphosphate] | transient products were observed | Elimination of Transient Product (TP) with DTT; also recorded: DTT Eliminates the Nitroso Intermediate (TP)
